This is one part of the list.
target: OsWRKY34 (Oryza sativa, UniProt Q0JBA9 1-250); test: protein-binding microarray (RPBM); PBS, 2% BSA, 51.3 ng/ul salmon testes DNA, 50 uM zinc acetate, 200 nM TF, 25 C, 1 h; high values mean tight binding; conditions: protein: recombinant; tags: N-terminal polyhistidine and DsRed monomer fusion (pET32a); label: CyDye5-dUTP incorporated in the synthesized complementary strand; 3' TTTTT single-stranded linker to array surface; dsDNA, one strand shown
Procedure, shortened: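 Transcription factors were made in E. coli BL21-CodonPlus as N-terminal fusions to a polyhistidine tag and DsRed, then purified on Ni–NTA. After primer extension with Cy5-dUTP and blocking with 2% BSA, a custom Agilent array was exposed for 1 h at 25 °C to 200 nM protein in PBS, 2% BSA, salmon testes DNA and 50 µM zinc acetate. Washed arrays were scanned on an Axon 4000B, and the binding signal is per-feature fluorescence intensity in arbitrary units.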

By UniProt entry, the sequences of proteins in these tests, tags left out.
UniProt Q0JBA9, entry or part of it: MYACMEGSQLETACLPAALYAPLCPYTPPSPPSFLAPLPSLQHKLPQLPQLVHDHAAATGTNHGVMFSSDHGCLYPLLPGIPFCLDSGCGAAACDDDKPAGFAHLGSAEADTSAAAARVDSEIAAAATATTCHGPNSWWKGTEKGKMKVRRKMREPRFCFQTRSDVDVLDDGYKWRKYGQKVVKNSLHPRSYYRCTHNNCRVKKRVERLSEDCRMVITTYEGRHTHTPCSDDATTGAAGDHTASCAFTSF

Going from “CGAATCCACTCGCCCCTCGCGTCGCCTCGCCGCACCAATGCGGAGTCACCTAGTGCAG” to “ATGCATTTACCTGGTCTTTTTGGGTTGTGCGGCCACTTTCCGGAGTCACCTAGTGCAG”, the binding signal falls from 10400 fluorescence intensity (a.u.) to 8130 fluorescence intensity (a.u.).

Going from “CCGTGACAAGTGACTCAAATATGTTTCTTTTATTCCATTTCGGAGTCACCTAGTGCAG” to “GCGTGCTCCGCGCCTCCGCCAGATCACGATCTCCTCTTCACGGAGTCACCTAGTGCAG”, the binding signal falls from 10800 fluorescence intensity (a.u.) to 8860 fluorescence intensity (a.u.).

First: GGGGTCTCGCTGAGTCGCCTGTCGCCGTCTCGGCTGCTCCCGGAGTCACCTAGTGCAG
Second: GTCTCAATACATTTTCTGCCATGTATGGGCATATGCCTCTCGGAGTCACCTAGTGCAG
The binding signal of the first is lower: 8050 fluorescence intensity (a.u.) for the first, 8350 fluorescence intensity (a.u.) for the second.

Going from “ATAGTTAAATTGCCCCTCACAACACCACCTGTCGCTGATTCGGAGTCACCTAGTGCAG” to “TTCTCCTGTACCTTTTTATATATGTTATTTTTTAGTCAATCGGAGTCACCTAGTGCAG”, the binding signal rises from 9460 fluorescence intensity (a.u.) to 11400 fluorescence intensity (a.u.).

Going from “TCTCGTCGTCTTCTTCGTCTCCCTACCTCCTCTTACCTCACGGAGTCACCTAGTGCAG” to “CATCACTTTTGTCACCCAATTCATTTTTCTTTAAAAATATCGGAGTCACCTAGTGCAG”, the binding signal rises from 8200 fluorescence intensity (a.u.) to 8530 fluorescence intensity (a.u.).

First: TTAAACTTACTAAACATATGGTTTTGTGACACTTCATTTTCGGAGTCACCTAGTGCAG
Second: CGGGTTGGGAATTGGAATTTGCATCTATCTGCCATAGAAGCGGAGTCACCTAGTGCAG
The binding signal of the first is lower: 8290 fluorescence intensity (a.u.) for the first, 9700 fluorescence intensity (a.u.) for the second.

Compared with “AACCAGTTCCTTGACTCCACCCTATGTTCCTAAGTCCAAACGGAGTCACCTAGTGCAG”, “CCTCGCCTTGCCTCGCTGCGTCACCAACCTTGACGGCGACCGGAGTCACCTAGTGCAG” is lower in binding signal: 10100 fluorescence intensity (a.u.) for the first, 8030 fluorescence intensity (a.u.) for the second.

First: CTCAGTCAGTCGGTCAGCCACCATTTTAGTACTAGAACAGCGGAGTCACCTAGTGCAG
Second: TGGGCATTCGTTCCACATATCCTGTGACCCCTTCTCTCATCGGAGTCACCTAGTGCAG
The binding signal of the first is lower: 8990 fluorescence intensity (a.u.) for the first, 9710 fluorescence intensity (a.u.) for the second.

First: GACCAAACCTGTACTTGCTTCCCGCGACCGTATCCATCTTCGGAGTCACCTAGTGCAG
Second: ATGGTCACATATCATGTCAAATAGGCCTGAAGTTTGTACACGGAGTCACCTAGTGCAG
The binding signal of the first is lower: 8120 fluorescence intensity (a.u.) for the first, 8280 fluorescence intensity (a.u.) for the second.

Compared with “GAGGTGGCTGGAGTGGGGTTTAGTGTTGGTTGTTAGGGATCGGAGTCACCTAGTGCAG”, “CGTTGACTTTTTAGTACGTGTTTGACCATTCGTCTTATTCCGGAGTCACCTAGTGCAG” is higher in binding signal: 13500 fluorescence intensity (a.u.) for the first, 30200 fluorescence intensity (a.u.) for the second.

First: CTTCATTTCCTCATATGCCATCCACACCATCTGACTATTTCGGAGTCACCTAGTGCAG
Second: AGTTTATAGTTGACTTATAGTCTACTGTTATCCTTGCTATCGGAGTCACCTAGTGCAG
The binding signal of the first is higher: 12100 fluorescence intensity (a.u.) for the first, 10700 fluorescence intensity (a.u.) for the second.

Going from “ACACCACATCTAATTCTAGGTTTTTTTTTCTTTTGGGGCGCGGAGTCACCTAGTGCAG” to “GTCCTTATCTGCTCATCGTCCTCACCAAATTGGCAAACTCCGGAGTCACCTAGTGCAG”, the binding signal rises from 10400 fluorescence intensity (a.u.) to 13500 fluorescence intensity (a.u.).

Compared with “TGTGGTTGAATGAGTAGTAGAAGTAGGTGGTAAAAGTGAACGGAGTCACCTAGTGCAG”, “CCAACTTTTTATCGTCCGTCTTATTTGAAAAATTTTTATACGGAGTCACCTAGTGCAG” is lower in binding signal: 10500 fluorescence intensity (a.u.) for the first, 10000 fluorescence intensity (a.u.) for the second.

First: CGAGACCGACTGATGCTACAACTTCTGTCCTTGCTCCGGCCGGAGTCACCTAGTGCAG
Second: ATCATCAGTGGCATACAAGAATTCAACTTCCAATGGCTTACGGAGTCACCTAGTGCAG
The binding signal of the first is higher: 8620 fluorescence intensity (a.u.) for the first, 8560 fluorescence intensity (a.u.) for the second.

Compared with “TGAACGTTTGCCCTTGTCAACCAATTCTCAGTGGCTTCTGCGGAGTCACCTAGTGCAG”, “TGTTTTCTTCATTTCTTGCACGTACTATCATGTATTTATTCGGAGTCACCTAGTGCAG” is higher in binding signal: 9600 fluorescence intensity (a.u.) for the first, 15200 fluorescence intensity (a.u.) for the second.

Compared with “ATTTGTCATTTTTTCTATGTGTATATGTTGTATTTTGAGCCGGAGTCACCTAGTGCAG”, “CCACCGCCAGTCCGCCACCTCCACCTCCACCTCCACCCGACGGAGTCACCTAGTGCAG” is lower in binding signal: 8430 fluorescence intensity (a.u.) for the first, 8270 fluorescence intensity (a.u.) for the second.

First: ATCAGGTGGTTTTTGTGGTGTTCATGTATAAGCTCATCTCCGGAGTCACCTAGTGCAG
Second: ATCACGAGTACACTAGCTGAAACATCGTAAAACTACTGGGCGGAGTCACCTAGTGCAG
The binding signal of the first is higher: 9710 fluorescence intensity (a.u.) for the first, 9360 fluorescence intensity (a.u.) for the second.

First: AGTCATGCGAAACTCATGCATGGCCTTTTCACGTTTTTCTCGGAGTCACCTAGTGCAG
Second: TCTCCTCGTTCGTCTCTCGCCTCGTCTTCCCCGTCCTCCGCGGAGTCACCTAGTGCAG
The binding signal of the first is lower: 8200 fluorescence intensity (a.u.) for the first, 11900 fluorescence intensity (a.u.) for the second.

Compared with “AGCTTTGACTTATCTCCTAGCTGTTTCAGTTTATATACCACGGAGTCACCTAGTGCAG”, “TCATCGCCACCTCGCTCTCGCGCCCTCTGCTCGCGCGCATCGGAGTCACCTAGTGCAG” is lower in binding signal: 11500 fluorescence intensity (a.u.) for the first, 10400 fluorescence intensity (a.u.) for the second.

First: TGCTTGCCCTGGGTTTGGTTCTTGGGTCCATCCATCTTCACGGAGTCACCTAGTGCAG
Second: ATCAATCATATGATCCTTTGATAATTTACCTTATGTTTCCCGGAGTCACCTAGTGCAG
The binding signal of the first is higher: 9250 fluorescence intensity (a.u.) for the first, 8380 fluorescence intensity (a.u.) for the second.

First: TATTAGCGCGCCCACTAATTCAGTTCAATTCTCAACTTAACGGAGTCACCTAGTGCAG
Second: GGGTTGCGCGGGTGGGCGGCGGCGGTGAAGGTGCGTGTGTCGGAGTCACCTAGTGCAG
The binding signal of the first is lower: 8790 fluorescence intensity (a.u.) for the first, 11600 fluorescence intensity (a.u.) for the second.

— article PMC7819943, “Rice protein-binding microarrays: a tool to detect cis-acting elements near promoter regions in rice”
